Source: PubChem BioAssay (NCATS)
This list was built around the results that the source calls inconclusive (neither active nor inactive); the mix of calls is not that of the screen. For some assays here: Potencies of inconclusive entries are doubtful fits and often do not repeat. Activity calls are given as the source filed them. The call rests on the fitted dose curve; in most records, active means well fitted curve in the direction sought with a large enough effect; inconclusive means small, poorly fitted or top-dose-only effect, or another doubt; inactive means no such curve, though single readings can be large; an effect the other way counts as inactive or inconclusive.

Legend:
[1] = Quantitative High-Throughput drug screen in 47 multiple myeloma cell lines against the NCATS MIPE library collection: MOLP8_DSMZ cell viability assay (AID 1918977); further: nearly all actives have a fitted effect of over 45% in size;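 on viability (% of control): 100% = DMSO-only wells and 0% = media-only wells without cells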
Outline: (§1)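 Inhibition of viability over 48 h was scored by ATP content (CellTiter-Glo) in 500-cell wells. Zero and full viability were defined by media-only and DMSO-only wells.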

[2] = Quantitative High-Throughput drug screen in 47 multiple myeloma cell lines against the NCATS MIPE library collection: NCIH929_DSMZ cell viability assay (AID 1918978); settings: NCI-H929 myeloma viability, CellTiter-Glo ATP, 48 h; viability, % of control: at 45.8 µM (top of the series); further: nearly all actives have a fitted effect of over 35% in size
Outline: as §1

[3] = Quantitative High-Throughput drug screen in 47 multiple myeloma cell lines against the NCATS MIPE library collection: OCIMY1_PLB cell viability assay (AID 1918979); further: nearly all actives have a fitted effect of over 35% in size;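 on viability: 100% = DMSO-only wells and 0% = cell-free media-only wells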
Outline: as §1

[4] = Quantitative High-Throughput drug screen in 47 multiple myeloma cell lines against the NCATS MIPE library collection: MM1S_ATCC cell viability assay (AID 1918980); further: nearly all actives have a fitted effect of over 45% in size
Outline: as §1

[5] = Quantitative High-Throughput drug screen in 47 multiple myeloma cell lines against the NCATS MIPE library collection: MM1R_ATCC cell viability assay (AID 1918981); further: nearly all actives have a fitted effect of over 35% in size
Outline: as §1

[6] = Quantitative High-Throughput drug screen in 47 multiple myeloma cell lines against the NCATS MIPE library collection: LP1_DSMZ cell viability assay (AID 1918982); further: nearly all actives have a fitted effect of over 35% in size
Outline: as §1

[7] = Quantitative High-Throughput drug screen in 47 multiple myeloma cell lines against the NCATS MIPE library collection: KMS28PE_JCRB cell viability assay (AID 1918983); further: nearly all actives have a fitted effect of over 35% in size
Outline: as §1

[8] = Quantitative High-Throughput drug screen in 47 multiple myeloma cell lines against the NCATS MIPE library collection: KMS34_JCRB cell viability assay (AID 1918985); settings: KMS34 myeloma viability, CellTiter-Glo ATP luminescence, 48 h; viability, percent of control: at 45.8 µM; further: nearly all actives have a fitted effect of over 40% in size;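 on viability, percent of control: 100% = DMSO-only wells and 0% = media-only wells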
Outline: as §1

[9] = Quantitative High-Throughput drug screen in 47 multiple myeloma cell lines against the NCATS MIPE library collection: OCIMY7_PLB cell viability assay (AID 1918987); settings: OCI-MY7 myeloma viability, CellTiter-Glo ATP, 48 h; viability (% of DMSO): at 45.8 µM unless noted; further: nearly all actives have a fitted effect of over 65% in size
Outline: as §1

[10] = Quantitative High-Throughput drug screen in 47 multiple myeloma cell lines against the NCATS MIPE library collection: OCIMY5_PLB cell viability assay (AID 1918988); settings: OCI-MY5 myeloma viability, ATP luminescence, 48 h; viability, % of control: at 45.8 µM; further: nearly all actives have a fitted effect of over 65% in size
Outline: as §1

[11] = Quantitative High-Throughput drug screen in 47 multiple myeloma cell lines against the NCATS MIPE library collection: OPM1_PLB cell viability assay (AID 1918989); settings: CellTiter-Glo, 48 h; viability (% of control): at 45.8 µM; further: nearly all actives have a fitted effect of over 40% in size;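 on viability (% of control): 100% = DMSO-only wells and 0% = media-only wells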
Outline: as §1

[12] = Quantitative High-Throughput drug screen in 47 multiple myeloma cell lines against the NCATS MIPE library collection: SKMM1_PLB cell viability assay (AID 1919863); settings: SKMM1 myeloma viability, CellTiter-Glo ATP, 48 h; viability: active compounds read low; further: nearly all actives have a fitted effect of over 35% in size
Outline: as §1

[13] = Quantitative High-Throughput drug screen in 47 multiple myeloma cell lines against the NCATS MIPE library collection: U266_ATCC cell viability assay (AID 1919864); further: nearly all actives have a fitted effect of over 35% in size;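 on viability (% of DMSO control): 0% = media-only wells without cells and 100% = DMSO-only wells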
Outline: as §1

[14] = Quantitative High-Throughput drug screen in 47 multiple myeloma cell lines against the NCATS MIPE library collection: XG6_PLB cell viability assay (AID 1919865); settings: XG6 myeloma viability, CellTiter-Glo ATP luminescence, 48 h; viability (% of control): at 45.8 µM; further: nearly all actives have a fitted effect of over 40% in size
Outline: as §1

[15] = Quantitative High-Throughput drug screen in 47 multiple myeloma cell lines against the NCATS MIPE library collection: VP6_DJ cell viability assay (AID 1919867); settings: ATP luminescence, 48 h; viability (% of DMSO): at 45.8 µM; further: nearly all actives have a fitted effect of over 40% in size;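 on viability (% of DMSO): 100% = DMSO-only wells and 0% = wells with media alone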
Outline: as §1

[16] = Quantitative High-Throughput drug screen in 47 multiple myeloma cell lines against the NCATS MIPE library collection: PCM6_Riken cell viability assay (AID 1919870); settings: CellTiter-Glo ATP, 48 h; viability (% of control): at 45.8 µM; further: nearly all actives have a fitted effect of over 30% in size
Outline: as §1

[17] = Quantitative High-Throughput drug screen in 47 multiple myeloma cell lines against the NCATS MIPE library collection: L363_DSMZ cell viability assay (AID 1918984); settings: L363 myeloma viability, CellTiter-Glo ATP luminescence, 48 h; viability (% of control): at 45.8 µM; further: nearly all actives have a fitted effect of over 40% in size
Outline: as §1

[18] = Quantitative High-Throughput drug screen in 47 multiple myeloma cell lines against the NCATS MIPE library collection: UTMC2_PLB cell viability assay (AID 1919868); settings: CellTiter-Glo ATP luminescence, 48 h; viability (% of DMSO control): at 45.8 µM; further: nearly all actives have a fitted effect of over 55% in size
Outline: as §1

[19] = Quantitative High-Throughput drug screen in 47 multiple myeloma cell lines against the NCATS MIPE library collection: XG1_PLB cell viability assay (AID 1919866); further: nearly all actives have a fitted effect of over 35% in size
Outline: as §1

[20] = Quantitative High-Throughput drug screen in 47 multiple myeloma cell lines against the NCATS MIPE library collection: PE2_PLB cell viability assay (AID 1919869); settings: PE2_PLB myeloma cells viability, ATP luminescence, 48 h; viability (% of control): at 45.8 µM; further: nearly all actives have a fitted effect of over 35% in size
Outline: as §1
Potency means the concentration at half of the fitted maximal effect.

c1cc(CN2CCCNCCNCCCNCC2)ccc1CN1CCCNCCNCCCNCC1
inconclusive: Potency [1] 0.0526 µM [rising, full curve, poor fit] | Potency [2] 33.2 µM [cytotoxic, single point] | Potency [3] 0.0059 µM [rising, full curve, poor fit] | Potency [4] 37.2 µM [cytotoxic, single point] | Potency [5] 0.001 µM | Potency [6] 0.148 µM [rising, partial curve, poor fit] | Potency [9] 0.003 µM [rising, full curve, poor fit] | Potency [10] 0.001 µM | Potency [13] 37.2 µM [cytotoxic, single point] | Potency [14] 33.2 µM [cytotoxic, single point] | Potency [16] 0.0059 µM [rising, full curve]
inactive: Potency [7] | Potency [8] | Potency [11] | viability [12] 136% | Potency [15]

CCOc1cc(N2CCC(O)CC2)ccc1Nc1ncc2c(n1)N(C)c1ccccc1C(=O)N2C
active: Potency [17] 0.526 µM | Potency [9] 6.62 µM
inconclusive: Potency [1] 13.2 µM [cytotoxic, partial curve, poor fit] | Potency [2] 9.35 µM [cytotoxic, partial curve] | Potency [3] 33.2 µM [cytotoxic, partial curve, poor fit] | Potency [6] 18.7 µM [cytotoxic, partial curve] | Potency [13] 8.33 µM [cytotoxic, partial curve, poor fit] | Potency [14] 0.526 µM [cytotoxic, full curve, poor fit] | Potency [18] 6.62 µM [cytotoxic, full curve, poor fit]

CC[C@H](C)n1cc(C)c2c(C(=O)NCc3c(C)cc(C)[nH]c3=O)cc(-c3ccc(N4CCNCC4)nc3)cc21
active: Potency [3] 26.4 µM | Potency [4] 0.935 µM | Potency [10] 23.5 µM
inactive: Potency [17]
inconclusive: Potency [1] 18.7 µM [cytotoxic, partial curve, poor fit] | Potency [2] 33.2 µM [cytotoxic, single point] | Potency [5] 37.2 µM [cytotoxic, single point] | Potency [7] 37.2 µM [cytotoxic, single point] | Potency [8] 16.6 µM [cytotoxic, partial curve, poor fit] | Potency [11] 33.2 µM [cytotoxic, single point] | Potency [18] 33.2 µM [cytotoxic, single point] | Potency [16] 37.2 µM [cytotoxic, single point]

CC(C)CN(C[C@H](O)[C@H](Cc1ccccc1)NC(=O)O[C@H]1CCOC1)S(=O)(=O)c1ccc(N)cc1
inactive: Potency [1] | Potency [8]
active: Potency [5] 16.6 µM | Potency [19] 20.9 µM
inconclusive: Potency [2] 16.6 µM [cytotoxic, partial curve] | Potency [6] 20.9 µM [cytotoxic, partial curve, poor fit] | Potency [7] 5.9 µM [cytotoxic, partial curve, poor fit] | Potency [17] 0.0074 µM [cytotoxic, full curve, poor fit] | Potency [9] 33.2 µM [cytotoxic, single point] | Potency [13] 20.9 µM [cytotoxic, partial curve, poor fit] | Potency [14] 9.35 µM [cytotoxic, partial curve] | Potency [18] 10.5 µM [cytotoxic, partial curve, poor fit] | Potency [20] 37.2 µM [cytotoxic, single point]

O=C1NC(=O)C(c2cnc3ccccn23)=C1c1cn2c3c(cccc13)CN(C(=O)N1CCOCC1)CC2
inconclusive: Potency [1] 0.001 µM [cytotoxic] | viability, % of control [2] 15.6% [cytotoxic] | Potency [4] 1.32 µM [cytotoxic, full curve] | Potency [6] 0.0053 µM [cytotoxic, full curve] | Potency [12] 0.0083 µM [rising, full curve, poor fit] | Potency [19] 0.372 µM [cytotoxic, partial curve] | Potency [20] 0.0833 µM [cytotoxic, full curve]
active: Potency [17] 0.0093 µM | Potency [9] 0.0743 µM | Potency [10] 0.372 µM | Potency [14] 1.87 µM | Potency [15] 5.26 µM
inactive: Potency [3] | Potency [7] | Potency [13]
